Assay results from US11169443B2, “Gap filling composition and pattern forming method using low molecular weight compound” (AZ Electronic Materials (Luxembourg) S.a.r.l., priority 2016, dated 2021).

What was measured:
[1] = Evaluation of application property (coatability); design: key: A: uniform coating was formed; B: coating was formed but contained plaque; C: coating was not formed
[2] = Pattern collapse rate, removal of composition by reduced pressure; details: 20% in IPA; reduced pressure 4.7 kPa/302 s
[3] = Evaluation of residue (film thickness after application and after bake)
[4] = Evaluation of pattern collapse rate (composition removed by heating); details: heated at 250° C. for 180 seconds, relative to water

With `CC(O)CCC(C)O` (stereo not shown) [2,5-hexanediol] the “coatability after dissolution into IPA” value ([1]; 20% in IPA, 1000 rpm) was “A”, the “coatability after dissolution into IPA:water = 7:3” value ([1]; 20% in IPA:water = 7:3, 1000 rpm) was “A” and the “coatability after dissolution into PGME” value ([1]; 20% in PGME, 1000 rpm) was “A”. The “coatability after dissolution into water” value ([1]; 20% in water, 1000 rpm) was “C”, the pattern collapse rate [2] was 0% and the “post-bake thickness of residual film 110° C./60 s” value ([3]; 20% in IPA) was 0 μm. For the same compound, the “post-bake thickness of residual film 130° C./60 s” value ([3]; 20% in IPA) was 0 μm, the film thickness ([3]; 20% in IPA, after application) was 1.2 μm and the “post-bake thickness of residual film 110° C./60 s” value ([3]; 20% in IPA:water = 7:3) was 0 μm. For the same compound, the “post-bake thickness of residual film 130° C./60 s” value ([3]; 20% in IPA:water = 7:3) was 0 μm, the film thickness ([3]; 20% in IPA:water = 7:3, after application) was 1.2 μm and the “post-bake thickness of residual film 110° C./60 s” value ([3]; 20% in PGME) was 0 μm. For the same compound, the “post-bake thickness of residual film 130° C./60 s” value ([3]; 20% in PGME) was 0 μm, the film thickness ([3]; 20% in PGME, after application) was 1.2 μm and the pattern collapse rate ([4]; 20% in IPA:water = 7:3) was 4%. For the same compound, the pattern collapse rate ([4]; 20% in IPA) was 5%.
